{"source": "PubChem BioAssay AID1508597 (Cure First, 2020)", "assay": "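Survival screen with siRNA in ovarian cancer cells derived from patients, with or without rucaparib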 (primary screen)", "cell system": "human ovarian carcinoma lines grown from tumours: OCI-P5x (papillary serous) and OCI-C5x (clear cell)", "knock-down reagent": "siRNA pool against human genes, 1.25 pmol siRNA per well", "time to read-out": "72 h or 96 h, depending on the cell culture", "challenge": "rucaparib 20 µM (about IC30) or vehicle, present until read-out", "read-out": "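ATP luminescence measured at 72 or 96 h according to the culture, then normalised and expressed as percent viability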", "scale": "viability, normalised: higher = more viable cells remaining", "active means": "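Active when normalised viability falls below 80 percent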", "meaning of the calls": "active = viability under 80%; inactive = viability 80% or more", "note": "Here is one part, drawn at random, of about 2,100 reagents. 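Calls flag viability under 80% in either arm, not effects specific to rucaparib; the reference for percent is not stated.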 Unmarked entries are inactive. Not stated in the record: the 100% reference."}
{"target": "CENPO (centromere protein O)", "rucaparib or vehicle": "Rucaparib", "cell line": "OCI-C5x (clear cell)", "technical replicate": "1", "viability, normalised (%)": "65.6 (active)"}
{"target": "CENPO (centromere protein O)", "rucaparib or vehicle": "Rucaparib", "cell line": "OCI-C5x (clear cell)", "technical replicate": "2", "viability, normalised (%)": "63.1 (active)"}
{"target": "CENPO (centromere protein O)", "rucaparib or vehicle": "Rucaparib", "cell line": "OCI-C5x (clear cell)", "technical replicate": "3", "viability, normalised (%)": "73.3 (active)"}
{"target": "CENPO (centromere protein O)", "rucaparib or vehicle": "Rucaparib", "cell line": "OCI-P5x (serous)", "technical replicate": "1", "viability, normalised (%)": "73.2 (active)"}
{"target": "CENPO (centromere protein O)", "rucaparib or vehicle": "Rucaparib", "cell line": "OCI-P5x (serous)", "technical replicate": "2", "viability, normalised (%)": "59.6 (active)"}
{"target": "CENPO (centromere protein O)", "rucaparib or vehicle": "Rucaparib", "cell line": "OCI-P5x (serous)", "technical replicate": "3", "viability, normalised (%)": "62.2 (active)"}
{"target": "CENPO (centromere protein O)", "rucaparib or vehicle": "Vehicle", "cell line": "OCI-C5x (clear cell)", "technical replicate": "1", "viability, normalised (%)": "75.4 (active)"}
{"target": "CENPO (centromere protein O)", "rucaparib or vehicle": "Vehicle", "cell line": "OCI-C5x (clear cell)", "technical replicate": "2", "viability, normalised (%)": "69.9 (active)"}
{"target": "CENPO (centromere protein O)", "rucaparib or vehicle": "Vehicle", "cell line": "OCI-C5x (clear cell)", "technical replicate": "3", "viability, normalised (%)": "72.5 (active)"}
{"target": "CENPO (centromere protein O)", "rucaparib or vehicle": "Vehicle", "cell line": "OCI-P5x (serous)", "technical replicate": "1", "viability, normalised (%)": 81.2}
{"target": "CENPO (centromere protein O)", "rucaparib or vehicle": "Vehicle", "cell line": "OCI-P5x (serous)", "technical replicate": "2", "viability, normalised (%)": "65.1 (active)"}
{"target": "CENPO (centromere protein O)", "rucaparib or vehicle": "Vehicle", "cell line": "OCI-P5x (serous)", "technical replicate": "3", "viability, normalised (%)": "75.5 (active)"}

Quoted from above for reference:
{"target": "CENPO (centromere protein O)", "rucaparib or vehicle": "Rucaparib", "cell line": "OCI-C5x (clear cell)", "technical replicate": "3", "viability, normalised (%)": "73.3 (active)"}
{"target": "CENPO (centromere protein O)", "rucaparib or vehicle": "Rucaparib", "cell line": "OCI-P5x (serous)", "technical replicate": "1", "viability, normalised (%)": "73.2 (active)"}
{"target": "CENPO (centromere protein O)", "rucaparib or vehicle": "Rucaparib", "cell line": "OCI-P5x (serous)", "technical replicate": "2", "viability, normalised (%)": "59.6 (active)"}

Continued:
{"target": "FASTK (Fas activated serine/threonine kinase)", "rucaparib or vehicle": "Rucaparib", "cell line": "OCI-C5x (clear cell)", "technical replicate": "1", "viability, normalised (%)": "49.4 (active)"}
{"target": "FASTK (Fas activated serine/threonine kinase)", "rucaparib or vehicle": "Rucaparib", "cell line": "OCI-C5x (clear cell)", "technical replicate": "2", "viability, normalised (%)": "38.7 (active)"}
{"target": "FASTK (Fas activated serine/threonine kinase)", "rucaparib or vehicle": "Rucaparib", "cell line": "OCI-C5x (clear cell)", "technical replicate": "3", "viability, normalised (%)": "46.9 (active)"}
{"target": "FASTK (Fas activated serine/threonine kinase)", "rucaparib or vehicle": "Rucaparib", "cell line": "OCI-P5x (serous)", "technical replicate": "1", "viability, normalised (%)": 82.4}
{"target": "FASTK (Fas activated serine/threonine kinase)", "rucaparib or vehicle": "Rucaparib", "cell line": "OCI-P5x (serous)", "technical replicate": "2", "viability, normalised (%)": "76.5 (active)"}
{"target": "FASTK (Fas activated serine/threonine kinase)", "rucaparib or vehicle": "Rucaparib", "cell line": "OCI-P5x (serous)", "technical replicate": "3", "viability, normalised (%)": "64.4 (active)"}
{"target": "FASTK (Fas activated serine/threonine kinase)", "rucaparib or vehicle": "Vehicle", "cell line": "OCI-C5x (clear cell)", "technical replicate": "1", "viability, normalised (%)": "68.6 (active)"}
{"target": "FASTK (Fas activated serine/threonine kinase)", "rucaparib or vehicle": "Vehicle", "cell line": "OCI-C5x (clear cell)", "technical replicate": "2", "viability, normalised (%)": "59.9 (active)"}
{"target": "FASTK (Fas activated serine/threonine kinase)", "rucaparib or vehicle": "Vehicle", "cell line": "OCI-C5x (clear cell)", "technical replicate": "3", "viability, normalised (%)": "33.6 (active)"}
{"target": "FASTK (Fas activated serine/threonine kinase)", "rucaparib or vehicle": "Vehicle", "cell line": "OCI-P5x (serous)", "technical replicate": "1", "viability, normalised (%)": "53.7 (active)"}
{"target": "FASTK (Fas activated serine/threonine kinase)", "rucaparib or vehicle": "Vehicle", "cell line": "OCI-P5x (serous)", "technical replicate": "2", "viability, normalised (%)": "72.4 (active)"}
{"target": "FASTK (Fas activated serine/threonine kinase)", "rucaparib or vehicle": "Vehicle", "cell line": "OCI-P5x (serous)", "technical replicate": "3", "viability, normalised (%)": "59.2 (active)"}
